The results in this text go back to paper PMC4725906.

Amino acid sequences for entries named in this document (tags omitted).
UniProt P48432: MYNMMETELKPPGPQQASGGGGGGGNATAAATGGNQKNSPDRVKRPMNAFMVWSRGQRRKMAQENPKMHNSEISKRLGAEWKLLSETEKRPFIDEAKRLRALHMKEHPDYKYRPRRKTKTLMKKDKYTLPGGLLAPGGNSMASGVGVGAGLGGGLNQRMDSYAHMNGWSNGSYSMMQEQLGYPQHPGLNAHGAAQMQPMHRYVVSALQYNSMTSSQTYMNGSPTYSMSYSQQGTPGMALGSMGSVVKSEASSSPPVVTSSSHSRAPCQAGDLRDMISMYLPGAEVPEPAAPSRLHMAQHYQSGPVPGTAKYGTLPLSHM

These are yes or no findings as the source states them, for the method shown. In cells and extracts the contact can be indirect. Some results given as binding are weak or reduced against the parent protein; the word gives no strength. Tags and fused reporters may be left off the sequences shown.

This assay has as its target T1, NANOG, C-terminal 3x FLAG tag (UniProt Q80Z64).
T1 sequence: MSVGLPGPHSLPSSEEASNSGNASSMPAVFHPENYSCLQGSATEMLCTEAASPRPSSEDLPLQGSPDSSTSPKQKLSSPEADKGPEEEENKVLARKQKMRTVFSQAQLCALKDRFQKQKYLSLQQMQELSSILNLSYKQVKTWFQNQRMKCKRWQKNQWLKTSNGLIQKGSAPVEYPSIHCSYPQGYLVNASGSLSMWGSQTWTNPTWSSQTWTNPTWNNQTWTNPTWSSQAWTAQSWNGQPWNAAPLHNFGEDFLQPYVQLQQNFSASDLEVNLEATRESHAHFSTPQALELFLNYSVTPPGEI
Description: co-IP; 293T cells co-transfected with E1A-FLAG or Nanog-FLAG plus Sox2-myc and Oct4-V5; lysis in 50 mM Tris-HCl pH 7.4, 0.1% IGEPAL CA-630, 5 mM EDTA, 150 mM NaCl, brief sonication; anti-FLAG antibody on Protein G Dynabeads overnight; washes with 125 mM NaCl; elution with 3x FLAG peptide; blots for FLAG, Myc and V5.

Consider “SOX2, C-terminal 3x Myc tag (from UniProt P48432 1-319)”, for which the binding entry is “binds”.
